Data taken from PubChem BioAssay AID912, deposited by NCATS (2007).

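A cell-based FRET test of anthrax lethal toxin entry, tracked through the 460 nm emission signal; the cell line is not named here.
Each compound was tested as a concentration series from about 0.0005 to 40 µM.
The number is the fitted AC50 of the 460 nm signal alone; lower values mean a more potent effect. A falling signal goes with compounds filed as inhibitors or cytotoxic, a rising one with activators or fluorescent compounds (inferred from the filed classes).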

Values are in µM.
Common to all entries: measured here: 460 nm channel.
This is a side read-out of the assay, for part of the compounds, not drawn at random.
A potency from a partial, single-point or poor curve is only a rough figure.
The first word of each remark tells which way the curve ran; it can be opposite to the aim of the assay.

| # | compound | AC50 (µM) | remark |
|---|---|---|---|
| 1 | `CCCS(=O)(=O)Nc1c(C(=O)O)[nH]c2ccccc12` | 0.003981 | falling, full curve |
| 2 | `C[N+]1([O-])[C@@H]2CC(OC(=O)[C@@H](CO)c3ccccc3)C[C@@H]1[C@H]1O[C@H]12` (stereo not given in full) | 1 | rising, single point |
| 3 | `CN(C)c1ccc(-c2cncnc2NCCN2CCOCC2)cc1` | 10 | rising, partial curve |
| 4 | `Cc1cccc(-c2noc(C3CCCCC3)n2)c1` | 0.003162 | falling, full curve, poor fit |
| 5 | `COc1ccc2c(c1)OC(O)(C(F)(F)C(F)F)CC2=O` (stereo not given) | 31.62 | falling, single point |
| 6 | `N=C(N=C(N)N)N1CCOCC1` | 31.62 | falling, partial curve |
| 7 | `COc1cc(C2N(c3ccc(Cl)cc3)C(=O)C3CCCN32)cc(OC)c1OC` (stereo not given) | 6.31 | rising, partial curve |
| 8 | `CCOC(=O)C1CCN(C(=O)c2ccc(Cl)c(Cl)c2)CC1` | 0.03981 | falling, full curve, poor fit |
| 9 | `CCCCCCCCCCCCCCCCOC[C@@H](COCC(F)(F)F)OP(=O)(O)OCO` | 19.95 | falling, partial curve, poor fit |
| 10 | `CC(C)c1nnc(NC(=O)c2cnccn2)s1` | 1 | rising, full curve |
| 11 | `CCn1c(SCC(=O)Nc2nc(-c3ccccc3)cs2)nnc1-c1ccccc1` | 10 | falling, partial curve |
| 12 | `Cc1cc(C)c(S(=O)(=O)N(C)CC(=O)NC2CCCC2)c(C)c1` | 12.59 | rising, single point |
| 13 | `Cc1cccc(C(OC(=O)c2ccco2)C(=O)NCc2ccccc2)n1` (stereo not given) | 1.259 | rising, partial curve |
| 14 | `Cc1sc2nc(SCc3nc4ccccc4[nH]3)n(Cc3ccco3)c(=O)c2c1C` | 7.943 | rising, partial curve |
| 15 | `O=C(O)COc1ccc(-c2nnn(Cc3ccccc3F)n2)cc1` | 0.003981 | falling, full curve |
| 16 | `Nc1nn(S(=O)(=O)c2cccc3nsnc23)cc1-c1ccc(Br)cc1` | 10 | falling, partial curve |
| 17 | `Cc1nn(-c2ccccc2)c2c1C(c1cccnc1)N1C=C(S(=O)(=O)N3CCCCC3)C=CC1=N2` (stereo not given) | 7.943 | rising, partial curve |
| 18 | `N#Cc1c(-c2ccccc2)cc(-c2ccco2)c(C#N)c1N` | 10 | falling, single point |
| 19 | `Cc1ccc(NC(=O)N2CCC(c3nc4c(nnn4Cc4cccc(Cl)c4)c(=O)[nH]3)CC2)cc1` | 7.943 | rising, partial curve |
| 20 | `Cc1ccc(-c2nnc(CSc3nnc(COc4ccccc4)n3-c3ccccc3)o2)cc1` | 25.12 | falling, single point |
| 21 | `C[C@@](O)(CNS(=O)(=O)c1ccccc1)c1ccccc1` | 1 | falling, single point |
| 22 | `COC(=O)[C@@]1(Cc2ccccc2)[C@H]2c3cc(C(=O)N(C)C)n(Cc4ccsc4Br)c3C[C@H]2CN1C(=O)c1ccccc1` | 31.62 | rising, single point |
| 23 | `CC1CC(=O)c2cnc(NCc3ccco3)nc2C1` (stereo not given) | 0.631 | falling, full curve |
| 24 | `O=C(CSc1ncnc2sc3c(c12)CCCC3)c1ccco1` | 12.59 | falling, single point |
| 25 | `CCCCc1cc2ccccc2c(OCCN(C)C)n1` | 10 | falling, partial curve, poor fit |
| 26 | `Oc1c(C(Nc2nc3ccccc3s2)c2ccco2)ccc2cccnc12` (stereo not given) | 7.943 | falling, partial curve, poor fit |
| 27 | `COC(=O)CCC(NC(=O)OCc1ccccc1)C(=O)NC(CC(C)C)C(=O)OC` (stereo not given) | 12.59 | rising, single point |
| 28 | `O=C(Nc1ccc(N2CCOCC2)c(Cl)c1)c1cccc(F)c1` | 12.59 | falling, partial curve |
| 29 | `O=C1c2oc3ccc(Br)cc3c(=O)c2C(c2cccc(F)c2)N1CCO` (stereo not given) | 12.59 | falling, partial curve, poor fit |
| 30 | `Cc1noc(/C=C/N(C)C)c1S(=O)(=O)NC1CCCCC1` | 1.585 | falling, full curve, poor fit |
| 31 | `O=c1c(-c2ccccc2)nc2cnc(N3CCOCC3)nc2n1Cc1ccc(F)cc1` | 5.012 | rising, partial curve |
| 32 | `O=C(NCc1ccccc1)c1cc(S(=O)(=O)N2CCC3(CC2)OCCO3)ccc1F` | 12.59 | rising, single point |
| 33 | `COc1ccc(-n2nc(C(=O)Nc3ccc4c(c3)OCO4)c3ccccc3c2=O)cc1` | 10 | falling, partial curve |
| 34 | `CN(C)c1ncc2nc(-c3ccccc3)c(=O)n(CCC#N)c2n1` | 10 | rising, partial curve |
| 35 | `O=C(O)CCn1c(C2CCCCC2)nc2ccccc21` | 31.62 | falling, single point |
| 36 | `Cn1cc(C(=O)c2ccc(Cl)cc2)cc1-c1nc2ccccc2n1C` | 5.012 | falling, partial curve, poor fit |
| 37 | `Nc1nc(NC(=O)c2cccc(S(=O)(=O)N3CCCCCC3)c2)nc(-c2ccccc2)n1` | 3.162 | falling, single point |
| 38 | `COc1cccc2sc(Nc3nnc(-c4ccccc4Cl)o3)nc12` | 2.512 | falling, full curve |
| 39 | `Cc1ccccc1N1C(=O)c2sc3nc4c(c(=O)n3c2C1=O)CCC4` | 31.62 | falling, single point |
| 40 | `Cc1ccccc1-c1nnc(SCc2ccc(F)cc2)o1` | 0.0631 | falling, full curve |
| 41 | `O=C(Nc1ccc(-c2cn3ccsc3n2)cc1)C1CC1` | 31.62 | rising, single point |
| 42 | `CCOC(=O)c1ccc(N2C(=O)c3n[nH]c(C)c3C2c2ccc(OC)cc2OC)cc1` (stereo not given) | 0.3981 | rising, full curve |
| 43 | `CCCCNC(=O)C(c1ccc(OCC(=O)OC)c(C(=O)OC)c1)N(Cc1ccccc1)C(=O)CCCCCN1C(=O)NC(c2ccc(-c3ccccc3)cc2)C(C(=O)OCc2ccccc2)=C1C` (stereo not given) | 1.995 | rising, partial curve |

For reference, 4 entries once more:

Result for Cc1ccccc1-c1nnc(SCc2ccc(F)cc2)o1 was AC50 0.0631 µM (falling, full curve).
Result for COc1cc(C2N(c3ccc(Cl)cc3)C(=O)C3CCCN32)cc(OC)c1OC (stereo not given) was AC50 6.31 µM (rising, partial curve).
Result for Oc1c(C(Nc2nc3ccccc3s2)c2ccco2)ccc2cccnc12 (stereo not given) was AC50 7.943 µM (falling, partial curve, poor fit).
Result for O=C(O)CCn1c(C2CCCCC2)nc2ccccc21 was AC50 31.62 µM (falling, single point).